This experiment concerns the target T1, Iml1-myc (S. pombe) (UniProt O74788).
T1 sequence: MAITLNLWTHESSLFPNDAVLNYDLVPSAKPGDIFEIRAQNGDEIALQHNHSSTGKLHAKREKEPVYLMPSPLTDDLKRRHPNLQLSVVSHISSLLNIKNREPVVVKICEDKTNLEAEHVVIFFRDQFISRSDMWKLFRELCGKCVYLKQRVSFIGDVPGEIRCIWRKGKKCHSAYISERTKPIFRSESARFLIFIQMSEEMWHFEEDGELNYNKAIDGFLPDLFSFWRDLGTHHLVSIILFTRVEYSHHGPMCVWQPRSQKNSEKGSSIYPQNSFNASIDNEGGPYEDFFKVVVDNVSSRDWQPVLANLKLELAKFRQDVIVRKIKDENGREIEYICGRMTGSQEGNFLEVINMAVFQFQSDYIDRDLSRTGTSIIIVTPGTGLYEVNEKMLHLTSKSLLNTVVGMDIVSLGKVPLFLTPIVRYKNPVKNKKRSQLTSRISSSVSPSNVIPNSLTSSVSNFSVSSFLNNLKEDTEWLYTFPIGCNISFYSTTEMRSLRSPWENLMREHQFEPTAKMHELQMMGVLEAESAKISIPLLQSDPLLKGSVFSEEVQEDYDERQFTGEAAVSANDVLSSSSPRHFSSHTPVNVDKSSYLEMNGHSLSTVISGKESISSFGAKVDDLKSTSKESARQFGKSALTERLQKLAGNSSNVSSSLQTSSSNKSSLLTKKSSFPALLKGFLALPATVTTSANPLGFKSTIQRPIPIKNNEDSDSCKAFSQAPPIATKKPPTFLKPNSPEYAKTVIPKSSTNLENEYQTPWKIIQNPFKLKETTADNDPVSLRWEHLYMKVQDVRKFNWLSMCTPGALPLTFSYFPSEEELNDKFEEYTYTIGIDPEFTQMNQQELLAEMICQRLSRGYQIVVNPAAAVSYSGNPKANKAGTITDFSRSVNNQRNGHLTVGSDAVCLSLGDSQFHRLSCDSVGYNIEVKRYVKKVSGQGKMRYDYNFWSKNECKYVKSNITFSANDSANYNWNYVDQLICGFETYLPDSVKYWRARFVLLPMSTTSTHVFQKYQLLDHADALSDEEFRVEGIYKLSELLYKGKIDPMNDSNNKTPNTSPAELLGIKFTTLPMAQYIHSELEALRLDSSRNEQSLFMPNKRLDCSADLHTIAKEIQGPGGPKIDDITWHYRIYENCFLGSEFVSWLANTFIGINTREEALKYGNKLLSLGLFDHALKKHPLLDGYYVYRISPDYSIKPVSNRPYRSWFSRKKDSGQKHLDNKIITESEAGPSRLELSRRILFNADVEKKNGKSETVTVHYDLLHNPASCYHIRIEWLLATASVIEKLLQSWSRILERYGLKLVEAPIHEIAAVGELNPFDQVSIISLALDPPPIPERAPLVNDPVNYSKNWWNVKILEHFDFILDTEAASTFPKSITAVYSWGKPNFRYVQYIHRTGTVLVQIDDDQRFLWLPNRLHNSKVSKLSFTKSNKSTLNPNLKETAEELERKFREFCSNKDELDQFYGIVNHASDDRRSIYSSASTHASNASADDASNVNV
In words: co-IP.

These are yes or no findings as the source states them, for the method shown. Binding seen in cells or lysates may run through a third protein. Binding calls can cover weak binding; strength is not graded here. Tags and fused reporters may be left off the sequences shown.

Regarding FLAG-Npr2 (S. pombe), the binding result is “binds”.

As to FLAG-Npr3 (S. pombe), the binding entry is reported as “binds”.

The record behind these values is article PMC7857730.
